Results from patent US6335164.

Amino acid sequences for entries named in this document (tags omitted). Residues count along the entry.
UniProt P0A7G6, 2-353: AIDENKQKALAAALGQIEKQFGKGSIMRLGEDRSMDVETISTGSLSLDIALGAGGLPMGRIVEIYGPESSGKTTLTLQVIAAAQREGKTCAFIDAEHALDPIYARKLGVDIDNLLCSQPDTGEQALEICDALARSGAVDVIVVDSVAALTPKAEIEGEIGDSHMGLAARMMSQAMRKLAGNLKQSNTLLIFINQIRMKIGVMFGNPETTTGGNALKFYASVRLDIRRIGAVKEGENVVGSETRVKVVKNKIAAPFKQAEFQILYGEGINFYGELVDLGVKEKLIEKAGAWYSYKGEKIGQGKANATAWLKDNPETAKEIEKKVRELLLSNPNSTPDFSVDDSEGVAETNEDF

Molecular target: RecA (UniProt P0A7G6)
Assay: activity assay
Details: 5'-biotin; homologous pairing with php53B; specificity and reactivity enhanced by heterologous probes; GTPgammaS, Mg2+, 37 C; purified recombinant protein; protein details: Boehringer-Mannheim; label: biotin; single-stranded DNA

In the case of “CCTTGCCGTCCCAAGCAATGGATGATTTGA [p53 homologous probe 30]”, the “activity on this sequence” value is reported as “active”.
